According to patent US20240226165A1, “Methods of Producing Improved Immune Cell Populations” (Prescient Therapeutics Ltd, priority 2021, published 2024):
Some entries share one result that the patent states for a list of compounds.

System: murine T-cells
Conditions: 50 μM, added during transduction or afterwards
Excerpt: Mouse splenocytes were activated using CD3/CD28 antibodies and cultured in the presence of recombinant IL-2 and IL-7 for 24 hrs prior to transduction with CAR-T vectors.
Cells were stained using fluorochrome labelled antibodies against CD4, CD8, CD44, CD62L to phenotype the murine CAR-T-cells following manufacturing. Human CAR-T-cells were phenotyped using fluorochrome-conjugated antibodies against CD4, CD8, CD45RA, CD45RO, CD44, CD62L, CCR7, CD27, PD-1 and CD69. A fixable live/dead dye was used to distinguish between live or dead cells.

`CN1N=C(N)c2cn([C@@H]3O[C@H](COP(=O)(O)O)[C@@H](O)[C@H]3O)c3ncnc1c23` [TCN-P, triciribine 5′-monophosphate] was tested, and the CAR-T-cell death was “at least 80%”.
